# Results are given in words; binding and its absence hold for the method and conditions named. Binding seen in cells or lysates may run through a third protein. Some binding calls cover weakened binding; strength is not graded here.
# Sequences of proteins named here, by UniProt entry; tags and fusion partners are left off.
# UniProt P03496: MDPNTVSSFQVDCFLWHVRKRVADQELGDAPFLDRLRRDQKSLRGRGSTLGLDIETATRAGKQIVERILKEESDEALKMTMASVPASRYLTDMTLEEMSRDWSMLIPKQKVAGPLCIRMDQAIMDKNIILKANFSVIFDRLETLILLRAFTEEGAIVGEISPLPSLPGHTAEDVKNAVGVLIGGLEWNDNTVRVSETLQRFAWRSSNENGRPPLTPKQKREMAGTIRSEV
# UniProt Q7Z434: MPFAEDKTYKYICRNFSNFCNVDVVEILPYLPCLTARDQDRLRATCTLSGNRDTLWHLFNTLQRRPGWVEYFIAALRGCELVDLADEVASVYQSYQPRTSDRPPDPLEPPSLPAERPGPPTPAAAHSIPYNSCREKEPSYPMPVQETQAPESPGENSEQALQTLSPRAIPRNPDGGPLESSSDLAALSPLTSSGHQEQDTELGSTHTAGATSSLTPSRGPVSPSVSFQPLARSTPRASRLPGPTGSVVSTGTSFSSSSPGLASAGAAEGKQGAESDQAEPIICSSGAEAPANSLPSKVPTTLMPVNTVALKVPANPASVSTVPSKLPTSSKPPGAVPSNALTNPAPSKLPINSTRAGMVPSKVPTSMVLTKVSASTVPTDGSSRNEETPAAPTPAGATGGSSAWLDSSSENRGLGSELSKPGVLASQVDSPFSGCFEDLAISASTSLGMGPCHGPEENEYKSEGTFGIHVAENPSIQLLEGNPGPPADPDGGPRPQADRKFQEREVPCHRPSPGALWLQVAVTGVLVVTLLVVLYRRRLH
# Target: FLAG-NS1 (IAV PR8 NS1 in p3xFLAG-CMV-14) (influenza A virus A/Puerto Rico/8/1934 (PR8)) (UniProt P03496)
# Test: co-IP
row,Substance,binding
1,HA-tagged wild-type MAVS (from UniProt Q7Z434 1-540),binds
2,MAVS (MAVS plasmid in chicken DF1 cells) (from UniProt Q7Z434 1-540),binds

# From PMC8537625
